Reference: the supplement of paper PMC10849652
The other results are listed elsewhere or left out.

By UniProt entry, the sequences of proteins in these tests, tags left out. Where a name states a change or a piece, a line headed by the entry shows the natural chain unless it says otherwise.
UniProt Q9NRD5, whole entry, looked up: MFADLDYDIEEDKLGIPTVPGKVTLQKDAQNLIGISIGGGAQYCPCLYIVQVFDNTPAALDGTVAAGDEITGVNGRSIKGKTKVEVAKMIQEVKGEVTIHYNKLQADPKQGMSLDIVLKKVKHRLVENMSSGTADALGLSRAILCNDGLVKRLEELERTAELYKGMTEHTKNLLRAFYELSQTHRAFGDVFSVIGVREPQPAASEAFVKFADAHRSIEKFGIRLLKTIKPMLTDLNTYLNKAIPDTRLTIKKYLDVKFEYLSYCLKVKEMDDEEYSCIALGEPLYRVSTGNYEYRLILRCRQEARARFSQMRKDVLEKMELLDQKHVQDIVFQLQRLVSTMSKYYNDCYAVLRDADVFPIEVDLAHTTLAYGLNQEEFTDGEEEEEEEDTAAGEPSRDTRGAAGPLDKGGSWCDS
UniProt Q969N2: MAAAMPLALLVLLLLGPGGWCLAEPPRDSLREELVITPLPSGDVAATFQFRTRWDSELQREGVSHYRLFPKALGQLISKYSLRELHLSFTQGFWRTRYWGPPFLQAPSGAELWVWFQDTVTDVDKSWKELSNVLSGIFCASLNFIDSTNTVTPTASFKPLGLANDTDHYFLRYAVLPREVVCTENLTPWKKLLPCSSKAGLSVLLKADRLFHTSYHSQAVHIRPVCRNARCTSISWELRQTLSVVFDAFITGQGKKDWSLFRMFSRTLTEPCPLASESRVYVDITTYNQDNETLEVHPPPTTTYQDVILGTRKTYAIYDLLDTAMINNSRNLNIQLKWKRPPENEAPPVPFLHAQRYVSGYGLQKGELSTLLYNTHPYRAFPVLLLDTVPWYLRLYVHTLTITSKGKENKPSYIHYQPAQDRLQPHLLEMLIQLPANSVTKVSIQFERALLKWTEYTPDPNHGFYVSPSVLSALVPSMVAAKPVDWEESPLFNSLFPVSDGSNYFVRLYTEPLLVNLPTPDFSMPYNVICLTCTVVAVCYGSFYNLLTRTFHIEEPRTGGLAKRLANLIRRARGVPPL
UniProt Q8N2W9: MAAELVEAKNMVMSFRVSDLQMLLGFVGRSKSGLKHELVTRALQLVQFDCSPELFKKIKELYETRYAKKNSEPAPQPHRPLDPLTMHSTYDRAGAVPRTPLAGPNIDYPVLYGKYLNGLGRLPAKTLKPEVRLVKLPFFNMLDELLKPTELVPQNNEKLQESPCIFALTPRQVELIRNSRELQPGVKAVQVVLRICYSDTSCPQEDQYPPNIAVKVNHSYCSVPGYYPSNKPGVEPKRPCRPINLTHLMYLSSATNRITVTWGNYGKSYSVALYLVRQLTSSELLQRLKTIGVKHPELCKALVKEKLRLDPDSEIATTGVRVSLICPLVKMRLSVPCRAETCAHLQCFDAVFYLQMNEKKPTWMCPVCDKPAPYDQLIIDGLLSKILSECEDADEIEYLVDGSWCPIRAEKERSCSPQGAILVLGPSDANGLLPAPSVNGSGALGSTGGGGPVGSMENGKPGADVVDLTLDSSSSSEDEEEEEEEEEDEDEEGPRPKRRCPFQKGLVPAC
UniProt P78356: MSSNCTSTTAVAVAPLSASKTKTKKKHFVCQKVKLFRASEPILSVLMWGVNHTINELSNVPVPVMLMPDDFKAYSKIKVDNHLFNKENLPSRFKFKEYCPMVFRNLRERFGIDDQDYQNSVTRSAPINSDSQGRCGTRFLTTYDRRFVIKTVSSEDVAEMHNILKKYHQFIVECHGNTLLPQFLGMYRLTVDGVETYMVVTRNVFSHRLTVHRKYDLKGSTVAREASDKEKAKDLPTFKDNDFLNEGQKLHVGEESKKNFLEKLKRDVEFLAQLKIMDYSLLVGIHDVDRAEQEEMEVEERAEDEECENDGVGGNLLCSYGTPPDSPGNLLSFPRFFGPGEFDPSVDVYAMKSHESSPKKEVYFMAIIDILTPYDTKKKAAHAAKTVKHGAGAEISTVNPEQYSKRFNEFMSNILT
UniProt O43175: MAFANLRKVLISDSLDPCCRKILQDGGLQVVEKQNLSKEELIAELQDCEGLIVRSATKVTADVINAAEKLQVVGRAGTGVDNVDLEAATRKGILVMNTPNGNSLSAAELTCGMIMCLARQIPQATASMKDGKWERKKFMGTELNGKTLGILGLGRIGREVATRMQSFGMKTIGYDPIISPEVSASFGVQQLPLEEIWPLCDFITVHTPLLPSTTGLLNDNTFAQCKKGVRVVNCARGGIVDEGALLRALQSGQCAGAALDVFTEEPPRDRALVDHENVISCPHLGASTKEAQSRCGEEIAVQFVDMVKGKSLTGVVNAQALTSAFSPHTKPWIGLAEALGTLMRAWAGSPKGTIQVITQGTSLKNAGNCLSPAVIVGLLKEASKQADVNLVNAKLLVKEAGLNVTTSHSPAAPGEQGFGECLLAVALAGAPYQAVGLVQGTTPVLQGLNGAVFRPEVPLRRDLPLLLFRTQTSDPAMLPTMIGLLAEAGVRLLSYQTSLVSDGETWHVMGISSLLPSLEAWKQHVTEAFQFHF
UniProt Q9Y446: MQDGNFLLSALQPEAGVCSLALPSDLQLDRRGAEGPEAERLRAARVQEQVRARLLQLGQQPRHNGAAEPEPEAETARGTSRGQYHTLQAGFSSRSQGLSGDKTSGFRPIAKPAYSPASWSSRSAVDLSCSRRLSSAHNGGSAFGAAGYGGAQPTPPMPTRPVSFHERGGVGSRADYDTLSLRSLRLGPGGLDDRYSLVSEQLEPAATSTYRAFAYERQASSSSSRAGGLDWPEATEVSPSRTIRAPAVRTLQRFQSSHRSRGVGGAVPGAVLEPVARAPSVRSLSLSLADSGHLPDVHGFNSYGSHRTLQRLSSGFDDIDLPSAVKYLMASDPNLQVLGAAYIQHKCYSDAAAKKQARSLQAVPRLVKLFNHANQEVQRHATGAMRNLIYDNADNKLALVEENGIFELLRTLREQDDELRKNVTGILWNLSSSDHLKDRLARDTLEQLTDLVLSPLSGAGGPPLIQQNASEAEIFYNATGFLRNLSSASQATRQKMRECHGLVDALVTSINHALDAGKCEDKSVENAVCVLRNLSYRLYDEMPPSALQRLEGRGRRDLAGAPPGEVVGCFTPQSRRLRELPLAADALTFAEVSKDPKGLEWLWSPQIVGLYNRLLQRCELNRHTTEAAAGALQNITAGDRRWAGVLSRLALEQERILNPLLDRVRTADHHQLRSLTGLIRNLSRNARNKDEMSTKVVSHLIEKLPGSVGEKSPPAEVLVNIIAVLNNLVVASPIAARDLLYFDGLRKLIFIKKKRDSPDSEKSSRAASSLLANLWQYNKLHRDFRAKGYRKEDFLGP
UniProt Q9BZM1: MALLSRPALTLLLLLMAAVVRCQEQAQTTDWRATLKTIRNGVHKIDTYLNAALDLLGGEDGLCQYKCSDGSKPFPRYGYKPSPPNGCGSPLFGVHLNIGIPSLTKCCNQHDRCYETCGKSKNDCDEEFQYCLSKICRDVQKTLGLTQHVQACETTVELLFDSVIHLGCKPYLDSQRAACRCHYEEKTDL
UniProt Q5JRX3: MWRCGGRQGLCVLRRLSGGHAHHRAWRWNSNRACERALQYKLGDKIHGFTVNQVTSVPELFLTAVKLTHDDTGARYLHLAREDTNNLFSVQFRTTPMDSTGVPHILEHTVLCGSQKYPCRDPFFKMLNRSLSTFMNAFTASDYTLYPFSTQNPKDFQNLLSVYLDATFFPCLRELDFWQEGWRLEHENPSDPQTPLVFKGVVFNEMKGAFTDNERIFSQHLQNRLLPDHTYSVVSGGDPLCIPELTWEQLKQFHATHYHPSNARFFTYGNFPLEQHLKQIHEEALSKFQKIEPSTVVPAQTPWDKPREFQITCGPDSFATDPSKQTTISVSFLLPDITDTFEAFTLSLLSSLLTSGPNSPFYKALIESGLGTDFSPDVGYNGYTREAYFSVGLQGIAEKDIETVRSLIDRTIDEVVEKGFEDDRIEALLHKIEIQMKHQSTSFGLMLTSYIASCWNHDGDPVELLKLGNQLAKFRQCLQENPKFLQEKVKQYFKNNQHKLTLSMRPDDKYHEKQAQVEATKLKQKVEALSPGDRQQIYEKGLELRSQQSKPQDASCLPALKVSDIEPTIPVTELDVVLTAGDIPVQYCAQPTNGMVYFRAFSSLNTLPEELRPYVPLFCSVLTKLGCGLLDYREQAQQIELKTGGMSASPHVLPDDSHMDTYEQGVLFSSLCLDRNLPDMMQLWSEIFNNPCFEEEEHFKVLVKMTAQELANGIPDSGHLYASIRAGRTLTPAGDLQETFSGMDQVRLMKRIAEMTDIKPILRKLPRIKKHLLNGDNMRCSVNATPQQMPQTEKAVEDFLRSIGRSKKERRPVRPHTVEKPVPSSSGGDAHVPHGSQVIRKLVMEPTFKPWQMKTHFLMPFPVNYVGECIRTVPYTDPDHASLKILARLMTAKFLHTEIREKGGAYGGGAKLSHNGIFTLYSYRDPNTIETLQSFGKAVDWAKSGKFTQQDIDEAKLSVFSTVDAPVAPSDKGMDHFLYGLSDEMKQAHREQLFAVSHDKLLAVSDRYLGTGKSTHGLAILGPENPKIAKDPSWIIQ
UniProt Q9Y263: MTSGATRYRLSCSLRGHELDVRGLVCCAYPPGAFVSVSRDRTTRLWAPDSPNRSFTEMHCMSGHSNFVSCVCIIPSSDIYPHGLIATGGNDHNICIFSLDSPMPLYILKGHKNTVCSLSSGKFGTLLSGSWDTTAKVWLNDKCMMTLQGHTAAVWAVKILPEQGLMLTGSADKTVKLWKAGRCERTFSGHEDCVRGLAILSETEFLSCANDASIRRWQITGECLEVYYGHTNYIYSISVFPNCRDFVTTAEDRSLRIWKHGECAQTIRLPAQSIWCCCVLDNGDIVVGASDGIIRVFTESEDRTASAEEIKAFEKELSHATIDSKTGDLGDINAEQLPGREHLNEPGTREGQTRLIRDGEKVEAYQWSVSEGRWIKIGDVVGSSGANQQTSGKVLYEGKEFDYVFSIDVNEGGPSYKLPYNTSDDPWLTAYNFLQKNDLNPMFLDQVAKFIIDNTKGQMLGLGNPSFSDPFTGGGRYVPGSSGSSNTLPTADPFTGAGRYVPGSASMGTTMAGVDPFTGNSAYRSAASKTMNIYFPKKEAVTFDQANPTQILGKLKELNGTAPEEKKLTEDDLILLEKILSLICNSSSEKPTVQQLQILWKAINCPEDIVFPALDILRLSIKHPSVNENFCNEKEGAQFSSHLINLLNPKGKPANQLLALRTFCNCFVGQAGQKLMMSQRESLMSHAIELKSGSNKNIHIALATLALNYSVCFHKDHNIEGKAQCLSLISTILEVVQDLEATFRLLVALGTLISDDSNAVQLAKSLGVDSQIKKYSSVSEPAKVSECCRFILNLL
UniProt P35232: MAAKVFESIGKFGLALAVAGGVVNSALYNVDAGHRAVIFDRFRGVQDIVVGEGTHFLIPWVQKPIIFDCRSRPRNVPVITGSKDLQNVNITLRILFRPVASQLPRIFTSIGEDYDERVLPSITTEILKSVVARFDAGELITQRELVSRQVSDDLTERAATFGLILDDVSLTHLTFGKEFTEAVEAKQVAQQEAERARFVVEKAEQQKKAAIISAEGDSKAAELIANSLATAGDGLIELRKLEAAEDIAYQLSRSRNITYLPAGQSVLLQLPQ
UniProt P11309, whole entry, looked up: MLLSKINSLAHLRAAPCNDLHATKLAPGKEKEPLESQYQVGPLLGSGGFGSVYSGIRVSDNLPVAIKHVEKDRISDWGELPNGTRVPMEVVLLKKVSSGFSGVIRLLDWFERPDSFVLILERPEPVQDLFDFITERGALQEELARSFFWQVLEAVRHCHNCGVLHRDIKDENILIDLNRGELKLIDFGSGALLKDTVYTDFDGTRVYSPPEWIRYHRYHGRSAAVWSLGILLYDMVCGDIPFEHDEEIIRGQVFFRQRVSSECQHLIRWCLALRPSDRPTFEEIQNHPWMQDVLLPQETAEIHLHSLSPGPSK
UniProt Q8WUB8: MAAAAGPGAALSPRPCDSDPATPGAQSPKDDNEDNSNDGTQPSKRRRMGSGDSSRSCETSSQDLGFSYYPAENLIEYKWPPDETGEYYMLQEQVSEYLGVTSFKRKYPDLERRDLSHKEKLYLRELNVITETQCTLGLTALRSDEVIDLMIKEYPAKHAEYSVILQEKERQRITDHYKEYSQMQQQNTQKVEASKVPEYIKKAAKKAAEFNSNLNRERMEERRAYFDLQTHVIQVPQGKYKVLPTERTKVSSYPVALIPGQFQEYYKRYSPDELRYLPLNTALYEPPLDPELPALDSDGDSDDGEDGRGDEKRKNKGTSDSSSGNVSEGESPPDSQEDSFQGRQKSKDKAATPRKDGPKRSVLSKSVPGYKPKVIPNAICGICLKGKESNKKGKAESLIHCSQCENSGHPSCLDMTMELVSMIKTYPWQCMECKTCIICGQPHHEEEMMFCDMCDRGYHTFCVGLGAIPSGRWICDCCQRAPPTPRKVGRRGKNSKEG

Assays:
Assay in all cases: log2 fold change, soluble protein after heating vs DMSO (PISA); higher = thermal stabilisation; K562 lysate, 10 uM; active = over 0.2 and 3.5 SD of the protein, either way, in both replicates (recomputed)
alvocidib = compound: CN1CC[C@H](c2c(O)cc(O)c3c(=O)cc(-c4ccccc4Cl)oc23)[C@H](O)C1 [alvocidib]
How it was run: (§1)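 A 30 min treatment with 10 μM compound was applied to crude K562 extract at 1 mg/mL protein in PBS pH 7.4 with 1 mM MgCl2. Heating for 3 min spanned 48°C-58°C, after which aliquots were pooled, adjusted to 0.5% NP-40 at 4°C and spun at 21,000xg for 90 min. TMTpro 16plex LC-MS/MS of the supernatant, with channel sums equalised, gave values recorded as log-two fold change in thermal stability against solvent controls, from duplicates.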

Tubastatin A = compound: CN1CCc2c(c3ccccc3n2Cc2ccc(C(=O)NO)cc2)C1 [Tubastatin A]
How it was run: as §1

[1] = compound: CNC(=O)C1=CC=CC=C1NC2=NC(=NC=C2Cl)NC3=C(C=C(C=C3)N4CCOCC4)OC
How it was run: as §1

defactinib = compound: CNC(=O)c1ccc(Nc2ncc(C(F)(F)F)c(NCc3nccnc3N(C)S(C)(=O)=O)n2)cc1 [defactinib]
How it was run: as §1

[2] = compound: CNc1nc(-c2ccc3c(N)n[nH]c3c2)cc(N2C[C@@H](C(=O)NC3CCCCC3)CC[C@H]2C)n1
How it was run: as §1

encorafenib = compound: COC(=O)N[C@@H](C)CNc1nccc(-c2cn(C(C)C)nc2-c2cc(Cl)cc(NS(C)(=O)=O)c2F)n1 [encorafenib]
How it was run: as §1

[3] = compound: COC(=O)[C@H](CCSC)NC(=O)C1=C(C=C(C=C1)NC[C@H](CS)N)C2=CC=CC=C2
How it was run: as §1

alisertib = compound: COc1cc(Nc2ncc3c(n2)-c2ccc(Cl)cc2C(c2c(F)cccc2OC)=NC3)ccc1C(=O)O [alisertib]
How it was run: as §1

[4] = compound: COc1cc2nc(-c3cc(F)ccc3O)nc(N[C@@H]3CNC[C@H]3C(C)(C)O)c2cc1OC
How it was run: as §1

gefitinib = compound: COc1cc2ncnc(Nc3ccc(F)c(Cl)c3)c2cc1OCCCN1CCOCC1 [gefitinib]
How it was run: as §1

lapatinib = compound: CS(=O)(=O)CCNCc1ccc(-c2ccc3ncnc(Nc4ccc(OCc5cccc(F)c5)c(Cl)c4)c3c2)o1 [lapatinib]
How it was run: as §1

pictilisib = compound: CS(=O)(=O)N1CCN(Cc2cc3nc(-c4cccc5[nH]ncc45)nc(N4CCOCC4)c3s2)CC1 [pictilisib]
How it was run: as §1

crizotinib = compound: C[C@@H](Oc1cc(-c2cnn(C3CCNCC3)c2)cnc1N)c1c(Cl)ccc(F)c1Cl [crizotinib]
How it was run: as §1

[5] = compound: C[C@H](C1=CC=C(C=C1)C(=O)NC2=C3C=CNC3=NC=C2)N
How it was run: as §1

duvelisib = compound: C[C@H](Nc1ncnc2nc[nH]c12)c1cc2cccc(Cl)c2c(=O)n1-c1ccccc1 [duvelisib]
How it was run: as §1

gandotinib = compound: Cc1cc(Nc2cc(CN3CCOCC3)c3nc(C)c(Cc4ccc(Cl)cc4F)n3n2)n[nH]1 [gandotinib]
How it was run: as §1

tozasertib = compound: Cc1cc(Nc2cc(N3CCN(C)CC3)nc(Sc3ccc(NC(=O)C4CC4)cc3)n2)n[nH]1 [tozasertib]
How it was run: as §1

doramapimod = compound: Cc1ccc(-n2nc(C(C)(C)C)cc2NC(=O)Nc2ccc(OCCN3CCOCC3)c3ccccc23)cc1 [doramapimod]
How it was run: as §1

bafetinib = compound: Cc1ccc(NC(=O)c2ccc(CN3CC[C@H](N(C)C)C3)c(C(F)(F)F)c2)cc1Nc1nccc(-c2cncnc2)n1 [bafetinib]
How it was run: as §1

[6] = compound: Cc1cccc(CC(=O)N2CCc3c2ccc(-c2cn(C)c4ncnc(N)c24)c3F)n1
How it was run: as §1

Target	log2 fold change (alvocidib)	log2 fold change (Tubastatin A)	log2 fold change [1]	log2 fold change (defactinib)	log2 fold change [2]	log2 fold change (encorafenib)	log2 fold change [3]	log2 fold change (alisertib)	log2 fold change [4]	log2 fold change (gefitinib)	log2 fold change (lapatinib)	log2 fold change (pictilisib)	log2 fold change (crizotinib)	log2 fold change [5]	log2 fold change (duvelisib)	log2 fold change (gandotinib)	log2 fold change (tozasertib)	log2 fold change (doramapimod)	log2 fold change (bafetinib)	log2 fold change [6]
PGP (UniProt A6NDG6)	inactive: -0.023	inactive: 0.024	inactive: -0.019	inactive: 0.016	inactive: 0.034	inactive: -0.009	inactive: -0.047	inactive: -0.045	inactive: -0.052	inactive: -0.077	inactive: 0.121	inactive: -0.011	inactive: 0.035	inactive: -0.068	inactive: -0.002	inactive: 0.029	inactive: 0.002	inactive: -0.026	inactive: 0.046	inactive: -0.004
PICK1 (UniProt Q9NRD5)	inactive: -0.054	inactive: -0.023	inactive: 0.029	inactive: 0.08	inactive: -0.033	inactive: 0.027	inactive: -0.001	inactive: 0.023	inactive: 0.011	inactive: -0.104	inactive: 0.032	inactive: -0.153	inactive: 0.004	inactive: -0.084	inactive: 0.061	inactive: 0.08	inactive: 0.108	inactive: -0.145	inactive: -0.159	inactive: 0.113
PIGT (UniProt Q969N2)	inactive: 0.003	inactive: 0.013	inactive: -0.073	inactive: -0.036	inactive: -0.002	inactive: -0.005	inactive: -0.049	inactive: 0.047	inactive: -0.094	inactive: 0.053	inactive: -0.105	inactive: -0.059	inactive: -0.027	inactive: -0.082	inactive: -0.029	inactive: -0.035	inactive: 0.023	inactive: -0.01	inactive: -0.049	inactive: 0.043
PIAS4 (UniProt Q8N2W9)	inactive: -0.12	inactive: -0.153	inactive: 0.052	inactive: -0.158	inactive: 0.063	inactive: 0.013	inactive: -0.036	inactive: -0.052		inactive: -0.015			inactive: -0.009	inactive: -0.092	inactive: 0.039	inactive: 0.128	inactive: 0.049	inactive: 0.03		inactive: 0.243
PIP4K2B (UniProt P78356)	active: 0.223	inactive: 0.008	inactive: -0.014	inactive: 0.031	inactive: -0.065	inactive: 0.062	inactive: -0.093	inactive: -0.036	inactive: -0.028	inactive: 0.013	inactive: 0.033	inactive: 0.044	inactive: -0.019	inactive: 0.01	inactive: 0.006	inactive: 0.029	inactive: -0.029	inactive: -0.001	inactive: 0.164	inactive: -0.067
PHGDH (UniProt O43175)	inactive: 0.028	active: -0.415	inactive: -0.081	inactive: 0.022	inactive: 0.018	inactive: 0.006	active: -0.439	inactive: 0.004	inactive: 0.006	inactive: -0.016	inactive: -0.053	inactive: 0.005	inactive: 0	inactive: 0.076	inactive: 0	inactive: -0.071	inactive: 0.019	inactive: -0.039	inactive: 0.032	inactive: -0.055
PKP3 isoform 2 (UniProt Q9Y446)	inactive: -0.011	inactive: -0.126	inactive: 0.067	inactive: 0.035	inactive: 0.017	inactive: 0.098	inactive: 0.095	inactive: 0.019	inactive: 0.031	inactive: -0.018	inactive: -0.007	inactive: -0.004	inactive: 0.043	inactive: -0.024	inactive: -0.048	inactive: 0.04	inactive: -0.039	inactive: 0.08	inactive: -0.085	inactive: 0.027
PLA2G12A (UniProt Q9BZM1)	inactive: -0.009	inactive: 0.036	inactive: 0.125	inactive: 0.07	inactive: 0.022			inactive: 0.068	inactive: -0.039	inactive: 0.432	inactive: 0.092	inactive: 0.086	inactive: -0.055	inactive: 0.046	inactive: -0.017	inactive: 0.12		inactive: -0.026	inactive: 0.016	inactive: 0.084
PITRM1 isoform 2 (UniProt Q5JRX3)	inactive: 0.016	inactive: 0.04	inactive: 0.023	inactive: 0.008	inactive: -0.029	inactive: -0.012	active: 0.228	inactive: -0.016	inactive: -0.016	inactive: 0.044	inactive: -0.001	inactive: -0.025	inactive: 0.053	inactive: 0.04	inactive: 0.029	inactive: 0.013	inactive: 0.006	inactive: -0.024	inactive: -0.023	inactive: -0.062
PLAA (UniProt Q9Y263)	inactive: -0.018	inactive: -0.04	inactive: -0.016	inactive: 0.003	inactive: -0.006	inactive: 0.011	inactive: -0.016	inactive: -0.002	inactive: -0.012	inactive: -0.04	inactive: -0.014	inactive: -0.01	inactive: -0.014	inactive: -0.079	inactive: 0.002	inactive: 0.015	inactive: 0.023	inactive: 0	inactive: -0.005	inactive: 0.067
PHB (UniProt P35232)	inactive: 0.017	inactive: 0.013	inactive: -0.011	inactive: 0.016	inactive: -0.017	inactive: 0.009	inactive: -0.03	inactive: 0.007	inactive: -0.02	inactive: -0.054	inactive: 0.028	inactive: 0.032	inactive: 0.023	inactive: 0.024	inactive: 0.099	inactive: -0.047	inactive: 0.054	inactive: 0.012	inactive: 0.013	inactive: -0.01
PIK3CG (UniProt P48736)	inactive: -0.033	inactive: -0.044	inactive: 0.04	inactive: 0.009	inactive: -0.015	inactive: 0.046	inactive: 0.041	inactive: 0.001					inactive: -0.128	inactive: -0.158	inactive: 0.183	inactive: 0.14	inactive: -0.038	inactive: 0.04	inactive: -0.111	inactive: 0.075
PLCB2 (UniProt Q00722)	inactive: 0.136	inactive: 0.145	inactive: 0.019	inactive: 0.009	inactive: 0.015	inactive: 0.011	inactive: 0.083	inactive: 0.071	inactive: -0.014	inactive: -0.128	inactive: 0.037	inactive: 0.032	inactive: -0.015	inactive: -0.052	inactive: -0.048	inactive: -0.005	inactive: 0.09	inactive: -0.022	inactive: -0.08	inactive: -0.051
PIM1 isoform 2 (UniProt P11309)	inactive: 0.217	inactive: -0.204	inactive: 0.052	inactive: 0.035	inactive: -0.152	inactive: -0.007	inactive: 0.038	inactive: -0.017		inactive: 0.003		inactive: 0.084	inactive: -0.107	inactive: 0.096	inactive: 0.081	inactive: -0.121	inactive: 0.046	inactive: -0.012	inactive: -0.043	inactive: -0.025
PHF10 (UniProt Q8WUB8)	inactive: 0.002	inactive: -0.035	inactive: 0.053	inactive: -0.025	inactive: -0.048	inactive: 0.044	inactive: 0.068	inactive: 0.042	inactive: -0.006	inactive: -0.077	inactive: 0.065	inactive: -0.027	inactive: 0.055	inactive: 0.028	inactive: 0.044	inactive: -0.007	inactive: 0.098	inactive: -0.022	inactive: -0.057	inactive: 0.054
PI4KA (UniProt P42356)	inactive: -0.006	inactive: -0.165	inactive: 0.035	inactive: 0.006	inactive: -0.029	inactive: 0.026	inactive: -0.005	inactive: 0.028	inactive: 0.019	inactive: 0	inactive: -0.03	inactive: 0.097	inactive: -0.005	inactive: -0.043	inactive: 0.189	inactive: -0.033	inactive: 0.013	inactive: -0.002	inactive: -0.075	inactive: 0.073

Record cards, from the list above. Order of values: log2 fold change (alvocidib)	log2 fold change (Tubastatin A)	log2 fold change [1]	log2 fold change (defactinib)	log2 fold change [2]	log2 fold change (encorafenib)	log2 fold change [3]	log2 fold change (alisertib)	log2 fold change [4]	log2 fold change (gefitinib)	log2 fold change (lapatinib)	log2 fold change (pictilisib)	log2 fold change (crizotinib)	log2 fold change [5]	log2 fold change (duvelisib)	log2 fold change (gandotinib)	log2 fold change (tozasertib)	log2 fold change (doramapimod)	log2 fold change (bafetinib)	log2 fold change [6]
PITRM1 isoform 2 (UniProt Q5JRX3) as listed: inactive: 0.016	inactive: 0.04	inactive: 0.023	inactive: 0.008	inactive: -0.029	inactive: -0.012	active: 0.228	inactive: -0.016	inactive: -0.016	inactive: 0.044	inactive: -0.001	inactive: -0.025	inactive: 0.053	inactive: 0.04	inactive: 0.029	inactive: 0.013	inactive: 0.006	inactive: -0.024	inactive: -0.023	inactive: -0.062
PHB (UniProt P35232) as listed: inactive: 0.017	inactive: 0.013	inactive: -0.011	inactive: 0.016	inactive: -0.017	inactive: 0.009	inactive: -0.03	inactive: 0.007	inactive: -0.02	inactive: -0.054	inactive: 0.028	inactive: 0.032	inactive: 0.023	inactive: 0.024	inactive: 0.099	inactive: -0.047	inactive: 0.054	inactive: 0.012	inactive: 0.013	inactive: -0.01
